# Measurements reported in PMC9663828.
# Chains of the proteins cited; added tags and fusions are not shown.
# UniProt Q9BVG3: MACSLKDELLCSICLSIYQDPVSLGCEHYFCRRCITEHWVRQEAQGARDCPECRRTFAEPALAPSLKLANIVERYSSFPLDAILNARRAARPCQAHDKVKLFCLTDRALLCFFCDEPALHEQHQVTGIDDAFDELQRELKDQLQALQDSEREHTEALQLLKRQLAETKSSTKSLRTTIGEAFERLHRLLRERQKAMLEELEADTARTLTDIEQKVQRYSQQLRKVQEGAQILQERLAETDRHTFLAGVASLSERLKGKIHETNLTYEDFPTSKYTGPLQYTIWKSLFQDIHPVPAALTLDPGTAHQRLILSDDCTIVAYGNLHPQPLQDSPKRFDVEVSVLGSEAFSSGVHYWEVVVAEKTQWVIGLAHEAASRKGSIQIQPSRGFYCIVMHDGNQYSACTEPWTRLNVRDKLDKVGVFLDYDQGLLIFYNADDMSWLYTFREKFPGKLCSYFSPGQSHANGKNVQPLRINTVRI
# No constants are given. Whether binding was seen depends on the method and setting. Binding seen in cells or lysates may run through a third protein. Some binding calls cover weakened binding; strength is not graded here. Sequences can lack the tags named with a protein.
# Biological target: HA-DEAR1 (UniProt Q9BVG3)
# Assay: co-IP; HEK293T co-transfected with HA-DEAR1 and/or Myc-SNAI2 for 24 h, MG-132 for 2 h before harvest; M-PER lysis; immunoprecipitated with anti-HA (rabbit) overnight at 4 °C, protein A/G agarose, RIPA washes; blotted with anti-Myc (mouse)
binder,measurement,value
"Myc-SNAI2 (protein, UniProt O43623 1-268) MPRSFLVKKHFNASKKPNYSELDTHTVIISPYLYESYSMPVIPQPEILSSGAYSPITVWTTAAPFHAQLPNGLSPLSGYSSSLGRVSPPPPSDTSSKDHSGSESPISDEEERLQSKLSDPHAIEAEKFQCNLCNKTYSTFSGLAKHKQLHCDAQSRKSFSCKYCDKEYVSLGALKMHIRTHTLPCVCKICGKAFSRPWLLQGHIRTHTGEKPFSCPHCNRAFADRSNLRAHLQTHSDVKKYQCKNCSKTFSRMSLLHKHEESGCCVAH",binding,binds
